Results on three compounds are retold here after paper PMC7791840, “The R-enantiomer of ketorolac reduces ovarian cancer tumor burden in vivo” (BMC Cancer, 2021).

For one data set, the system named is COX1. The data set is described as follows: Western blot of tumor COX1 protein. The conditions noted are these: 1 mg/kg twice daily. The format is in vivo.
For another data set, the system named is COX2. The data set can be described thus: Western blot of tumor COX2 protein. It counts as in vivo. The conditions noted are these: 1 mg/kg twice daily. (In western blotting, separated proteins are transferred to a membrane and probed.)
For data set [1], the system named is ADM, CXCR4, DUSP1, FAM43A, HK2, HMOX1, IGFBP5, KRT19, and VEGFA. The data set can be described thus: qRT-PCR validation of RNA-seq in tumors. It counts as in vivo, human.

Structures can show the parent of a compound that is named as a salt.

As for `O=C(c1ccccc1)c1ccc2n1CC[C@H]2C(=O)O` [R-ketorolac], in the data set on COX1, the “COX1 protein level in tumors” value is “unaffected”. In addition, the “COX2 protein level in tumors” value in the data set with COX2 is given as “unaffected”. The “CXCR4 expression in tumors” value in data set [1] (in vivo, vs placebo) is reported as “significantly reduced”. In data set [1] (tumors, vs placebo control), the “Expression of 9 genes (ADM, CXCR4, DUSP1, FAM43A, HK2, HMOX1, IGFBP5, KRT19, VEGFA) by qRT-PCR” value is “decreased expression”. Further, in data set [1] (vs placebo), the “VEGFA expression in tumors” value is “decreased expression of the angiogenic marker VEGFA”.

As to `O=C(c1ccccc1)c1ccc2n1CC[C@@H]2C(=O)O` [S-ketorolac], the “COX1 protein level in tumors” value in the data set on COX1 is listed as “decreased”. In addition, in the data set on COX2, the “COX2 protein level in tumors” value was “decreased”.

Consider `O=C(c1ccccc1)c1ccc2n1CCC2C(=O)O` (stereo not drawn) [R−/S-ketorolac, ketorolac tromethamine salt], for which the “COX1 protein level in tumors” value in the data set on COX1 is recorded as “decreased”. Besides, in the data set with COX2, the “COX2 protein level in tumors” value is given as “decreased”.
